Assay results taken from PubChem BioAssay AID1508600 (Functional Genomics Laboratory (NCATS/FGL), 2020).
Out of some 53,000 sequences screened, about 3,700 (7%) were called active.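 Rule for the calls: active = gene knockdowns whose robust z-score for IL-1 alpha signal is at least 2 or at most -2, so actives lie on both sides; inactive = the rest.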 This is one part of the list.

Assay: Components of the Cytosolic LPS Sensing Pathway: Gene Identification via Genome-wide siRNA Screen;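 note: robust z of the log signal after scaling to non-targeting control siRNA wells of the plate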
Conditions: RAW264.7 macrophages, IL-1a HTRF, actives lie on both sides, screened at 100 nM (by protocol), cells primed 5 h with Pam3CSK4 first
Method in brief: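 Read-out: IL-1a HTRF on supernatant, divided by plate negative-control median ×100, log-transformed and converted to robust z-score. Cells were RAW264.7 given 100 nM siRNA, Pam3CSK4-primed 5 hours, then LipidA-transfected 24 hour.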

| Sequence | z-score |
| --- | --- |
| GGUAACCUUGGAGAAGGUCTT against Mapkbp1 | inactive: 0.647 |
| GCCUGAAUCCGCCACAUUGTT against Cx3cl1 | inactive: 1.6 |
| GGUGCUGGUGGACAUUGCATT against L3hypdh | inactive: -1.32 |
| GGAUCUACAUUGCUAAAGUTT against Dbil5 | inactive: 0.0731 |
| CGGACCUACAAACAAUAACTT against Ccl9 | inactive: 0.11 |
| GCCAUUCGCACAUACCAGATT against Exoc4 | inactive: 1.01 |
| UGAAAGCAUAAGCAAUACATT against Ercc6l2 | inactive: -1.29 |
| CCAUUGUGAUCAAGAUAAATT against Cggbp1 | inactive: -0.35 |
| GCGGAACAUCUUAGCUUAATT against Perm1 | inactive: -0.111 |
| UCGGCCAUGUAGUAUGGGATT against Xlr3a | inactive: 0.42 |
| GGAAAAAGAUUGAGGAAGUTT against Uhrf1 | inactive: -1.13 |
| GGACAUUAACGAGCUGAACTT against Ube2m | inactive: 0.67 |
| GGACUUGAGAAAAGAUUAUTT against Shroom1 | inactive: 1.03 |
| CCUGAGAUGAUAAUCCUGCTT against Sprr2i | inactive: -0.501 |
| GGUUAUCUUGAAUAAAGCUTT against Zfp346 | inactive: -0.303 |
| GGAUUGAUAAUUUCCUGAATT against Nol6 | inactive: 0.6 |
| GGGCUGUGAUCUUAUUUCATT against Tpk1 | inactive: 1.75 |
| GGCCUAUGUCCACAAGAGUTT against Magohb | inactive: -0.999 |
| GCCCUUAAUUGAACAAAUATT against Otud7b | inactive: 0.0529 |
| GGAGGCUGAAAAGUUCCGGTT against Card19 | inactive: 0.135 |
| GGGUUUUUAGCUAAUACUATT against Pdk1 | inactive: 1.86 |
| GGAAGACUCUUGGAUUCUCTT against Evi5 | inactive: 0.67 |

| Sequence | z-score |
| --- | --- |
| GCAGAUUUGAAGCAUAUUGTT against N4bp1 | inactive: 0.0609 |
| GCCAAGAUGGUUAAAUACCTT against Ankrd34b | inactive: -1.64 |
| GGAACUAUCACGUGUUCUATT against Myo7a | inactive: 0.837 |
| CCUCUAGCCAUCUACUUUGTT against Rad9b | inactive: -1.03 |
| CCGAGGCAUCUUAGCUUAATT against Nxt1 | inactive: -0.348 |
| GGCGGAAAUCUUGAGCAAATT against Slc28a2 | active: 4.39 |
| CCGAGACAUAUACAAAGGATT against Klkb1 | inactive: -0.36 |
| GCCUUGACCUCAUACCUUGTT against Spc24 | inactive: -1.5 |
| GGAAGUCUUAGAAGUAGCCTT against Diaph3 | inactive: 0.691 |
| GCAUCAUUAAAAAGGAGAGTT against Shmt1 | inactive: -0.178 |
| GGUCCUCAAUGAAAUGAGATT against Krt12 | inactive: 1.05 |
| GAGUCUGGUUAUGUGGCAUTT against Scgb1a1 | inactive: 0.442 |
| GGUGUAAUUCUCAUUGUGCTT against Slc10a2 | inactive: 0.589 |
| GGCAACAUUCCUUAUUCACTT against Sh3bgrl3 | inactive: -0.0568 |
| GGAGUCAACACACAUCAAGTT against Zfp13 | inactive: 1 |
| UACUUAGGCCCUUGAGCAUTT against Timm10 | inactive: 0.725 |
| GGACUAUAUUCUUAACUCATT against F11r | inactive: 0.121 |
| GGAUUUUGAAGCCAGUUGCTT against Ubash3a | inactive: 0.731 |
| AUGGGACUCAUGUAAUGGUTT against Ly6k | inactive: 0.735 |
| GGGCAUUGCCAGGAAUUAUTT against Lrp1b | inactive: 1.31 |
| GCAUCUCCCUUAUGUCUGUTT against Nubp2 | active: 2.12 |
| GGCUUAUGUGGUCCUUGGCTT against Banf1 | inactive: -1.5 |

| Sequence | z-score |
| --- | --- |
| CCUGUCUUUAGUGGACUUUTT against Olfr1453 | inactive: 0.22 |
| CCACAUGUUUGUCUCAAAATT against Gskip | inactive: 1.28 |
| GGCACCAUUGAAAUUCUGATT against Rplp0 | inactive: 0.152 |
| CGCUGCUGGUUCAUAUUGGTT against Zdhhc25 | inactive: -0.859 |
| GGUACUGGAUGAGCUGAGGTT against Letm1 | inactive: 0.362 |
| GCCAGGAUUAUCUUGAGAATT against Prpf39 | inactive: -1.42 |
| UGGGCCUUGUAGGCUUCAUTT against Rell2 | active: 2.3 |
| CCAACUACUAGAAUGUAUCTT against Fam124b | inactive: -1.34 |
| CGUGGUCUUCACGAUUGGATT against Pde4c | active: 3.71 |
| GGAGAGGACAGAAAGCAAATT against Mchr1 | inactive: 0.113 |
| CCAUUGAGGGAAUGAUUAATT against Acvr1b | inactive: 0.596 |
| CCAAAGAUACCAUUUUGCATT against Lypd8 | inactive: 0.599 |
| GCUCAGUAUACUUCAGCAUTT against Sebox | inactive: -0.706 |
| GGAGGGUCCUUUUUCACAUTT against Asph | inactive: -0.5 |
| GUCGCCGUGUAUGUAUCAUTT against Olfr727 | inactive: 0.812 |
| GGUUAAAGGAAAAUGACACTT against Cdh6 | inactive: -0.306 |
| GGCCAUGAUAUCCUCUUCUTT against Vars | inactive: -0.628 |
| GGAGCUGCUAUGUACACAUTT against Bptf | inactive: 0.364 |
| GCUCCAGUUGCCUCUUUUUTT against Olfr900 | inactive: -0.0521 |
| CCAUAUCAUUGAUAUAGCUTT against Thoc3 | inactive: -0.0534 |
| GGUGGAGGAUUUUUCAGAUTT against Hs6st2 | active: 2.42 |
| GGGAAAUUUAAAAACCUGGTT against Hoxa2 | inactive: -0.139 |

| Sequence | z-score |
| --- | --- |
| GCAGUGGGAGUAUACAUCUTT against Olfr847 | inactive: 0.502 |
| GGAAUCCUUCACUGAUGAATT against Pilrb1 | inactive: -1.87 |
| GGAAGUUCGAUGUUCCUAGTT against Cep85 | inactive: 0.779 |
| GGUUAAAGGUGUCUAUAAUTT against Smchd1 | inactive: 0.743 |
| GGAAAUUAACUUCACUGCUTT against Olfr669 | inactive: -0.69 |
| GCUAUUGGGUAGAUUGAUATT against Baat | inactive: 0.251 |
| GGAUGUGCAUAGUUUAAAATT against Atg12 | inactive: 0.802 |
| GGAUUUCUUUGGUGAGACUTT against Gstk1 | inactive: -0.865 |
| GCCCUACCCUCAUCAUAAATT against Tmem94 | inactive: -1.36 |
| CCCUAUUUGUCAGCGGUCUTT against Rbpms | inactive: -1.94 |
| GGUAUGUUGGAAAGUCUUUTT against Fbxl12os | inactive: -0.163 |
| GGUUGAUUUCCUGUUUCUGTT against Casp7 | inactive: 0.107 |
| GGAUUUUUCAGAUUCUAGATT against Hs6st2 | inactive: 0.375 |
| GGUCAUGUAUUUUCUUCUATT against Olfr576 | inactive: -0.677 |
| GGAGUUUUACUUUUCUCUCTT against Cldn23 | inactive: 0.514 |
| CCAUCUACAAACUUUGGCCTT against Sacs | inactive: 0.669 |
| CCAGCUCUGUACUAAUCCUTT against Nol3 | inactive: -0.893 |
| CCUCAUCUCAUAUGUUCAGTT against Trim30d | inactive: 0.34 |
| GGACUCUUUAGCACAAACUTT against Tlr11 | inactive: -1.45 |
| UACUGAUUCUGCUGGACUCTT against Olfr1474 | inactive: 0.481 |
| GGCUUUUAAGUUCAUCGCATT against Fam53c | inactive: 0.305 |
| GGUACUACUUCCUUUGGAATT against Slc38a2 | inactive: -0.861 |

At a glance, part of the list above.

| Sequence | z-score |
| --- | --- |
| GGGAAAUUUAAAAACCUGGTT against Hoxa2 | inactive: -0.139 |
| GCAGUGGGAGUAUACAUCUTT against Olfr847 | inactive: 0.502 |
| GGAAUCCUUCACUGAUGAATT against Pilrb1 | inactive: -1.87 |
| GGAAGUUCGAUGUUCCUAGTT against Cep85 | inactive: 0.779 |
| GGUUAAAGGUGUCUAUAAUTT against Smchd1 | inactive: 0.743 |
| GGAAAUUAACUUCACUGCUTT against Olfr669 | inactive: -0.69 |
| GCUAUUGGGUAGAUUGAUATT against Baat | inactive: 0.251 |
| GGAUGUGCAUAGUUUAAAATT against Atg12 | inactive: 0.802 |
| GGAUUUCUUUGGUGAGACUTT against Gstk1 | inactive: -0.865 |
| GCCCUACCCUCAUCAUAAATT against Tmem94 | inactive: -1.36 |
| CCCUAUUUGUCAGCGGUCUTT against Rbpms | inactive: -1.94 |
| GGUAUGUUGGAAAGUCUUUTT against Fbxl12os | inactive: -0.163 |
| GGUUGAUUUCCUGUUUCUGTT against Casp7 | inactive: 0.107 |
| GGAUUUUUCAGAUUCUAGATT against Hs6st2 | inactive: 0.375 |
| GGUCAUGUAUUUUCUUCUATT against Olfr576 | inactive: -0.677 |
| GGAGUUUUACUUUUCUCUCTT against Cldn23 | inactive: 0.514 |
| CCAUCUACAAACUUUGGCCTT against Sacs | inactive: 0.669 |
| CCAGCUCUGUACUAAUCCUTT against Nol3 | inactive: -0.893 |
| CCUCAUCUCAUAUGUUCAGTT against Trim30d | inactive: 0.34 |
| GGACUCUUUAGCACAAACUTT against Tlr11 | inactive: -1.45 |
| UACUGAUUCUGCUGGACUCTT against Olfr1474 | inactive: 0.481 |
| GGCUUUUAAGUUCAUCGCATT against Fam53c | inactive: 0.305 |

Next entries

| Sequence | z-score |
| --- | --- |
| CCUAAAUUUGACUGUGCCUTT against Nudt10 | active: 2.13 |
| GGCAAGGAUAUAAAUUCACTT against Mak | active: 2.47 |
| GUCAGUAUGGAGCGAUGGGTT against Zmiz2 | inactive: 0.695 |
| GCAGGAGGUUUAUACAGCCTT against Spata5 | inactive: -0.969 |
| GCAUAACCAAGUGUGAUGCTT against Actrt2 | inactive: -0.439 |
| GGAGAAUGCCCUGAUAUAGTT against Hyal5 | inactive: 1.56 |
| GGAUGAAUUUGGAGUUUCUTT against Rnf138rt1 | inactive: -0.31 |
| GCUGACCAUUUCCACCAGATT against B4galnt2 | inactive: -0.602 |
| GCCAGUCCUUCAAGUGUAUTT against Jak2 | active: 4.16 |
| GCACAUCAUUUUGAGUAUUTT against Spg21 | inactive: 1.15 |
| CGUGUGAAGCAGUUAUGAUTT against Pbx3 | inactive: 1.02 |
| GCGUAUUUUAUGGAUGAAATT against Nfkbiz | active: -2.42 |
| GGCAGCAUUAAAACUUAAGTT against Chtop | active: 2.71 |
| GGAGAGUGCUUCACAGACATT against Crlf3 | inactive: 0.639 |
| GGACAAGGAGUAUUAUGUGTT against Nrxn3 | inactive: -0.372 |
| CCACAAGCAGUGCUCUUUCTT against Cyp3a13 | active: -2.08 |
| GGGUAUUGACUACACCAGCTT against Tnfrsf10b | inactive: -0.409 |
| GGGCUUGAAGAAUAACAGATT against Tmem45b | inactive: 0.148 |
| GGGUAGGUCCAAAGCCUUCTT against Olfr902 | inactive: 0.164 |
| CCCAUGUACCACUUUGUCATT against Olfr430 | active: -2.05 |
